Measurements published in the supplement of paper PMC3334620.
The full ranking holds about 33,000 sequences; the median of “E-score (-0.5 to 0.5)” is about -0.0014, and the highest 2% start at about 0.25. This is one part of the list.

target: T1, Cad1 (UniProt P24813); test: PBM E-score (8-mer binding enrichment) (E-score (-0.5 to 0.5)); higher = stronger / more preferred TF binding; details: protein concentration: 100 nM; construct: GST-full length
T1 sequence: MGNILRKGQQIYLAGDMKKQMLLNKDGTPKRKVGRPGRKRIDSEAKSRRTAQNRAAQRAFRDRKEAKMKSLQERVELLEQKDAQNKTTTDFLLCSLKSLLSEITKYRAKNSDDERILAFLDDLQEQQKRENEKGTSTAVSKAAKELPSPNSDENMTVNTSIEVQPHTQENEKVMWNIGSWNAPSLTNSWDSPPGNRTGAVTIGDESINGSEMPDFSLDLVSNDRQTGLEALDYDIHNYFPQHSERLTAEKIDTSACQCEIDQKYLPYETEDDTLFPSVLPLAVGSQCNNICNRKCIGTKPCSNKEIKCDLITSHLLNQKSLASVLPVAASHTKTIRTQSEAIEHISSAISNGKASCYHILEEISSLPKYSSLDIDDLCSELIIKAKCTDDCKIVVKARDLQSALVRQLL
Procedure, shortened: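 Universal all-10-mer Agilent arrays, double-stranded by primer extension on fresh or once-stripped slides, were probed with about 100-200 nM GST-tagged yeast transcription factors made by PURExpress. Fluorescent anti-GST detected bound protein, and masliner normalised the scans. E-scores from the Universal PBM Analysis Suite were given to each ungapped eight-base word pooled with its reverse complement.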

| Sequence | PBM E-score |
| --- | --- |
| GGTAACAA | 0.261 |
| CATACTAC | -0.0173 |
| AGAAACGG | 0.0692 |
| GCTGATTA | 0.378 |
| GACGCGTA | 0.247 |
| AAACAATT | 0.114 |
| AAACGGTG | -0.104 |
| CTTAATGC | 0.0119 |
| CGGTATAG | -0.128 |
| CATCCTTC | -0.208 |
| TACGCCCA | -0.114 |
| GGACGGCC | -0.204 |
| AACAATAT | 0.338 |
| AGGGGAGC | -0.359 |
| CACCGGAG | -0.0402 |
| ACAAACCC | -0.0167 |
| CTAATTAA | 0.147 |
| ATTCGCGG | 0.162 |
| ACATCTCC | -0.00723 |
| ATGCTCAC | -0.153 |
| CCTTCGCC | -0.244 |
| CAATTTAG | 0.13 |
| TAGGTAAA | -0.0826 |
| CGGGTCGC | -0.0916 |
| TGTAGAAA | -0.18 |

| Sequence | PBM E-score |
| --- | --- |
| TCTCATAA | 0.0752 |
| AAGTCTAA | -0.0792 |
| TGCTACAA | 0.0619 |
| AACCACTT | -0.0125 |
| AGCTTCCC | -0.225 |
| CCGGATTC | 0.0348 |
| CTCCTACA | -0.0759 |
| AACCTGGA | -0.0733 |
| CCCCTCAG | -0.398 |
| CATACAAC | -0.0145 |
| GGGTTCGA | -0.0275 |
| ACATCTAC | 0.107 |
| TGAGGGCA | -0.168 |
| GGGTCAAC | 0.101 |
| GAAGGAAA | -0.108 |
| GCAGTTAA | 0.044 |
| TCCTACCA | -0.189 |
| ATTCCTTG | -0.0547 |
| CAAATGCG | -0.00119 |
| ATTGAACC | 0.0644 |
| AATATCCC | -0.00553 |
| ATTAGGGC | -0.0576 |
| AACGCTGT | 0.137 |
| AGCCGCAC | -0.00957 |
| AACGTCAG | -0.201 |

Part of the list above, tab-delimited:
Sequence	PBM E-score
TGCTACAA	0.0619
AACCACTT	-0.0125
AGCTTCCC	-0.225

Further results follow:

| Sequence | PBM E-score |
| --- | --- |
| CATCGTTC | 0.0341 |
| AGTGCCGA | 0.0766 |
| GAGATAGC | -0.163 |
| GAACTTCA | 0.066 |
| GGTGTCAA | -0.0544 |
| CGCCTCAC | -0.0432 |
| GCTAAAAC | -0.073 |
| CAGAGTTC | 0.155 |
| CCCGCTAG | -0.0769 |
| CTCTGCGC | 0.0684 |
| AGTATTGC | 0.0133 |
| GGTACAAC | -0.124 |
| CTAGCCTA | -0.0452 |
| CGCCCTTC | -0.164 |
| CCTGACGA | 0.112 |
| AGGACGGG | -0.355 |
| TAGCGTAA | 0.183 |
| CAACCAAC | -0.0616 |
| TTCGGAAA | 0.032 |
| ATTAGATA | 0.211 |
| AGCCTCCA | -0.312 |
| GAATTTCA | 0.0817 |
| CTCATTGC | 0.109 |
| CCAGGCAC | -0.0563 |
| CCCTCTCG | -0.241 |

| Sequence | PBM E-score |
| --- | --- |
| TAAACGCA | 0.202 |
| AGATGAAT | 0.00515 |
| AGGGTAAG | -0.0352 |
| GCTAGGTA | 0.0171 |
| TCCCACGA | 0.122 |
| CCGGACTA | -0.0508 |
| CGGCATAC | -0.0115 |
| AAAAACGT | 0.0745 |
| AGGCTTAC | 0.0988 |
| ATTACACG | 0.0358 |
| AACAAATA | 0.186 |
| CACACGAC | -0.0361 |
| AAGTTGTG | 0.0444 |
| GGAGCGAC | 0.0262 |
| CGTTGGGC | -0.0152 |
| GAACTCTA | 0.0411 |
| CCAAAAAA | 0.241 |
| GCTCCCCC | -0.429 |
| AGGCTGAT | -0.124 |
| ACGCATCG | 0.0475 |
| CATACGTA | 0.117 |
| GTGATCTA | 0.113 |
| ACCACATA | 0.0572 |
| ACTCTTGA | -0.108 |
| GGGCATAA | 0.033 |

| Sequence | PBM E-score |
| --- | --- |
| TCAATTAA | 0.206 |
| GAACGTAC | -0.00789 |
| ATAACTCA | 0.218 |
| CTCTTTAA | -0.03 |
| ACGCAGAG | -0.0267 |
| GGTTAAGA | -0.0069 |
| AGTGTGGG | -0.0209 |
| AGCAAAGG | -0.00929 |
| GGCGATTA | 0.0143 |
| AATGCTAA | 0.0828 |
| CAGGCGAC | -0.104 |
| ATTTCGAA | 0.169 |
| CTTGTCCC | -0.0227 |
| GAAACTCC | -0.0582 |
| CTTTTATC | 0.00822 |
| TCAGATCA | -0.0851 |
| GTACGAGA | -0.0229 |
| ACATGACC | -0.162 |
| AGTAAGAC | 0.0266 |
| GGTGAAAC | -0.0742 |
| CATCCACA | 0.0323 |
| CGACCATC | -0.156 |
| AACTTGAG | -0.154 |
| ATGTGCTA | -0.0463 |
| AGTAACTC | -0.0448 |

| Sequence | PBM E-score |
| --- | --- |
| GTCCCACA | 0.0564 |
| ATCGAAGG | 0.158 |
| GTGTGAAA | 0.195 |
| GTAGTACA | 0.097 |
| ATCACGAT | 0.00311 |
| ACGCTAAG | -0.142 |
| GGACAGGA | -0.118 |
| GGCAGATA | 0.0222 |
| CCCACCGA | -0.138 |
| ACGCTTTA | 0.0919 |
| TAATCTGA | 0.0309 |
| CGATTTCC | 0.0421 |
| CAGGTCAC | -0.267 |
| CTATCTGA | -0.13 |
| GCCGTCGC | 0.0609 |
| ATGGAGAC | -0.0562 |
| GAGCCCAA | -0.0911 |
| CATGCACC | -0.146 |
| CTCGAGTC | -0.0647 |
| ATTATATC | 0.0433 |
| GGGTTGCA | -0.0385 |
| CTGCGTGA | 0.0364 |
| AAGATTGC | -0.00431 |
| GGTATGAA | 0.123 |
| AAAGTTAT | 0.0695 |

A section from the list above:

| Sequence | PBM E-score |
| --- | --- |
| CAGGTCAC | -0.267 |
| CTATCTGA | -0.13 |
| GCCGTCGC | 0.0609 |

The list goes on.

| Sequence | PBM E-score |
| --- | --- |
| CCAGATAG | -0.146 |
| CGGTATTC | 0.0714 |
| AAGCTATA | -0.0979 |
| GTTGCGTA | 0.111 |
| CGAAATAC | 0.22 |
| CGTAACGC | 0.133 |
| AGGTCAAG | -0.107 |
| GCAGCTCC | -0.145 |
| CCCGCTTA | 0.121 |
| CAGCCATG | -0.077 |
| AGCAAATA | 0.0703 |
| GGCTCTAA | -0.0431 |
| CAAGGGTC | -0.02 |
| GGTTAGAA | -0.111 |
| TACTAGAA | 0.0443 |
| ACGTAAGC | 0.287 |
| AACGGAGT | 0.212 |
| CGAGGTGC | 0.142 |
| GCTAGCTA | 0.0605 |
| ATCTCGTA | 0.0325 |
| TCTGTCAA | -0.0111 |
| ATGTCCGC | 0.0661 |

Looked up one by one from above (2):

| Sequence | PBM E-score |
| --- | --- |
| TAAACGCA | 0.202 |
| AGGCTTAC | 0.0988 |
